Article PMC11406190
Results are given in words; binding and its absence hold for the method and conditions named. Binding seen in cells or lysates may run through a third protein. These calls come from enrichment with a bait or labelling near it, and not all partners need be listed.

Chains of the proteins cited; added tags and fusions are not shown.
UniProt Q14587: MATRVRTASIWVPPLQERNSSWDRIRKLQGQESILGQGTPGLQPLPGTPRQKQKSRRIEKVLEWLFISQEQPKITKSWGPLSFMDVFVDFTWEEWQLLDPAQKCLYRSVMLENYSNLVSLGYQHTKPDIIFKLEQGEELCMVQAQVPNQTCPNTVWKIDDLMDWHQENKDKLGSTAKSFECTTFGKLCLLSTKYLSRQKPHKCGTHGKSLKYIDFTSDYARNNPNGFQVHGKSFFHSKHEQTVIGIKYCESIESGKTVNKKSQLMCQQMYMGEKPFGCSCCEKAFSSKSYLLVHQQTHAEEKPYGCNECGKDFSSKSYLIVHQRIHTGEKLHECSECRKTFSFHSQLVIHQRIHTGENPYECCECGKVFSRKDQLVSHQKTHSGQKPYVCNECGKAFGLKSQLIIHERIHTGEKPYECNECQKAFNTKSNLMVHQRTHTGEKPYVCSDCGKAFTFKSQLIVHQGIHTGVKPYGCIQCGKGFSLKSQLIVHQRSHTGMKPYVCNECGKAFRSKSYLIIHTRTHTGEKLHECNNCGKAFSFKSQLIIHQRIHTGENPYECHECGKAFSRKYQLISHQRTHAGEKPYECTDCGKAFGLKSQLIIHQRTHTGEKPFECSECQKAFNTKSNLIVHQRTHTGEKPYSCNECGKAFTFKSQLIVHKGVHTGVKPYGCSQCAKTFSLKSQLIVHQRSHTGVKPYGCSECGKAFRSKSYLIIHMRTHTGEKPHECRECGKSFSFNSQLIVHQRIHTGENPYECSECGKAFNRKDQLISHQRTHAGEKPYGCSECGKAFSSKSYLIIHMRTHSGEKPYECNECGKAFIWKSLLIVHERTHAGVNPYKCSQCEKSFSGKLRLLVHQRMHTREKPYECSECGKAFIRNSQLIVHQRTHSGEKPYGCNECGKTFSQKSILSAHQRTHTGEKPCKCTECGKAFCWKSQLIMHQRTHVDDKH

Target: Flag-tagged ZNF268a (human) (UniProt Q14587)
Test: affinity purification with mass spectrom

- binding: binds
B1: SETD4 (endogenous, found by mass spectrometry) (enzyme, UniProt Q9NVD3 1-440)
chain: MQKGKGRTSRIRRRKLCGSSESRGVNESHKSEFIELRKWLKARKFQDSNLAPACFPGTGRGLMSQTSLQEGQMIISLPESCLLTTDTVIRSYLGAYITKWKPPPSPLLALCTFLVSEKHAGHRSLWKPYLEILPKAYTCPVCLEPEVVNLLPKSLKAKAEEQRAHVQEFFASSRDFFSSLQPLFAEAVDSIFSYSALLWAWCTVNTRAVYLRPRQRECLSAEPDTCALAPYLDLLNHSPHVQVKAAFNEETHSYEIRTTSRWRKHEEVFICYGPHDNQRLFLEYGFVSVHNPHACVYVSREILVKYLPSTDKQMDKKISILKDHGYIENLTFGWDGPSWRLLTALKLLCLEAEKFTCWKKVLLGEVISDTNEKTSLDIAQKICYYFIEETNAVLQKVSHMKDEKEALINQLTLVESLWTEELKILRASAETLHSLQTAFT
